{"source": "PubChem BioAssay AID743458 (Peter MacCallum Cancer Centre, 2014)", "purpose": "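Retest earlier hits with independent siRNAs per gene for restoring vorinostat sensitivity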 (follow-up of hits)", "cells": "human HCT116-VR colon cancer cells made resistant to vorinostat", "knock-down reagent": "single siRNA or pool against human genes, 25 nM per single siRNA", "duration": "about 72 h after transfection, including 24 h of drug", "conditions": "vorinostat, 2.5 µM final, for 24 h", "measurement": "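Cell viability by fluorescence and apoptosis by caspase 3/7 luminescence under vorinostat, background-corrected, averaged across two plate copies and given as fold change versus mock transfection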", "reading the numbers": "viability relative to mock: higher = more living cells than mock; caspase activity relative to mock: higher = more apoptosis than mock", "active means": "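An siRNA counts as active if classed as reduced viability or as caspase activation, otherwise inactive; a hit class needed wells that remained healthy in the absence of drug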", "note": "In all, the deposit lists about 1,800 reagents; below is a random part of them. Of all reagents, 732 (41%) got an active call. 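Calls are per siRNA reagent; a gene was deemed confirmed only if most of its four siRNAs scored.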 A number with no mark means an inactive call. The numbers tell different reagents against one gene apart. No sequences are given here."}
The first 2 entries, to show the layout:
{"gene": "C1QTNF7 (C1q and TNF related 7)", "reagent": 1, "viability relative to mock": 0.95, "caspase activity relative to mock": 1.1, "viability hit class": "no change", "caspase hit class": "no change"}
{"gene": "C1QTNF7 (C1q and TNF related 7)", "reagent": 2, "viability relative to mock": 0.85, "caspase activity relative to mock": 0.88, "viability hit class": "no change", "caspase hit class": "no change"}

Main list, from the first entry:
{"gene": "C1QTNF7 (C1q and TNF related 7)", "reagent": 1, "viability relative to mock": 0.95, "caspase activity relative to mock": 1.1, "viability hit class": "no change", "caspase hit class": "no change"}
{"gene": "C1QTNF7 (C1q and TNF related 7)", "reagent": 2, "viability relative to mock": 0.85, "caspase activity relative to mock": 0.88, "viability hit class": "no change", "caspase hit class": "no change"}
{"gene": "C1QTNF7 (C1q and TNF related 7)", "reagent": 3, "viability relative to mock": 0.84, "caspase activity relative to mock": 0.74, "viability hit class": "no change", "caspase hit class": "no change"}
{"gene": "C1QTNF7 (C1q and TNF related 7)", "reagent": 4, "viability relative to mock": 0.25, "caspase activity relative to mock": 1.21, "viability hit class": "no change", "caspase hit class": "no change"}
{"gene": "MRPS11 (mitochondrial ribosomal protein S11)", "reagent": 1, "viability relative to mock": "0.55 (active)", "caspase activity relative to mock": 1.63, "viability hit class": "reduced viability", "caspase hit class": "no change"}
{"gene": "MRPS11 (mitochondrial ribosomal protein S11)", "reagent": 2, "viability relative to mock": "0.84 (active)", "caspase activity relative to mock": 3.28, "viability hit class": "no change", "caspase hit class": "caspase activation"}
{"gene": "MRPS11 (mitochondrial ribosomal protein S11)", "reagent": 3, "viability relative to mock": 0.94, "caspase activity relative to mock": 1.96, "viability hit class": "no change", "caspase hit class": "no change"}
{"gene": "MRPS11 (mitochondrial ribosomal protein S11)", "reagent": 4, "viability relative to mock": "0.18 (active)", "caspase activity relative to mock": 3.14, "viability hit class": "reduced viability", "caspase hit class": "caspase activation"}
{"gene": "RNF183 (ring finger protein 183)", "reagent": 1, "viability relative to mock": 1.02, "caspase activity relative to mock": 1.12, "viability hit class": "no change", "caspase hit class": "no change"}
{"gene": "RNF183 (ring finger protein 183)", "reagent": 2, "viability relative to mock": 1, "caspase activity relative to mock": 1.11, "viability hit class": "no change", "caspase hit class": "no change"}
{"gene": "RNF183 (ring finger protein 183)", "reagent": 3, "viability relative to mock": 0.74, "caspase activity relative to mock": 1.34, "viability hit class": "no change", "caspase hit class": "no change"}
{"gene": "RNF183 (ring finger protein 183)", "reagent": 4, "viability relative to mock": 0.92, "caspase activity relative to mock": 0.97, "viability hit class": "no change", "caspase hit class": "no change"}
{"gene": "NUDT15 (nudix hydrolase 15)", "reagent": 1, "viability relative to mock": 0.93, "caspase activity relative to mock": 1.32, "viability hit class": "no change", "caspase hit class": "no change"}
{"gene": "NUDT15 (nudix hydrolase 15)", "reagent": 2, "viability relative to mock": 0.68, "caspase activity relative to mock": 1.84, "viability hit class": "no change", "caspase hit class": "no change"}
{"gene": "NUDT15 (nudix hydrolase 15)", "reagent": 3, "viability relative to mock": 0.92, "caspase activity relative to mock": 1.09, "viability hit class": "no change", "caspase hit class": "no change"}
{"gene": "NUDT15 (nudix hydrolase 15)", "reagent": 4, "viability relative to mock": "0.44 (active)", "caspase activity relative to mock": 3.09, "viability hit class": "reduced viability", "caspase hit class": "caspase activation"}
{"gene": "OTUB2 (OTU deubiquitinase, ubiquitin aldehyde binding 2)", "reagent": 1, "viability relative to mock": 1.09, "caspase activity relative to mock": 1.31, "viability hit class": "no change", "caspase hit class": "no change"}
{"gene": "OTUB2 (OTU deubiquitinase, ubiquitin aldehyde binding 2)", "reagent": 2, "viability relative to mock": "0.64 (active)", "caspase activity relative to mock": 3.69, "viability hit class": "no change", "caspase hit class": "caspase activation"}
{"gene": "OTUB2 (OTU deubiquitinase, ubiquitin aldehyde binding 2)", "reagent": 3, "viability relative to mock": "0.6 (active)", "caspase activity relative to mock": 3.97, "viability hit class": "no change", "caspase hit class": "caspase activation"}
{"gene": "OTUB2 (OTU deubiquitinase, ubiquitin aldehyde binding 2)", "reagent": 4, "viability relative to mock": 0.84, "caspase activity relative to mock": 1.44, "viability hit class": "no change", "caspase hit class": "no change"}
{"gene": "RPAP2 (RNA polymerase II associated protein 2)", "reagent": 1, "viability relative to mock": 0.32, "caspase activity relative to mock": 4.73, "viability hit class": "no change", "caspase hit class": "no change"}
{"gene": "RPAP2 (RNA polymerase II associated protein 2)", "reagent": 2, "viability relative to mock": 0.98, "caspase activity relative to mock": 1.25, "viability hit class": "no change", "caspase hit class": "no change"}
{"gene": "RPAP2 (RNA polymerase II associated protein 2)", "reagent": 3, "viability relative to mock": 0.74, "caspase activity relative to mock": 1.46, "viability hit class": "no change", "caspase hit class": "no change"}
{"gene": "RPAP2 (RNA polymerase II associated protein 2)", "reagent": 4, "viability relative to mock": 0.94, "caspase activity relative to mock": 1.09, "viability hit class": "no change", "caspase hit class": "no change"}
